Measured values taken from the supplement of paper PMC12823440, “Inhibitors supercharge kinase turnover through native proteolytic circuits” (Nature, 2025).
Counter-ions that a name gives are not always drawn. Some of the results follow. The calls rarely recur for the same compound in another form.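 Kinases were expressed as nanoluciferase fusions in K562 cells and luminescence was read every 4 h between 2 and 18 h as percent of control, DMSO set to 100% and a positive control to 0%. A time point counts as decreased when the signal drops significantly (2 sigma). The hit call is the authors' own, does not follow from the count of time points alone, and its rule is not shown.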

Protein sequences, listed by entry. Tags and fused reporters are not part of them. Lines headed by an entry give the natural chain unless they say otherwise; changes in a name come on top.
UniProt Q05397, whole entry, looked up: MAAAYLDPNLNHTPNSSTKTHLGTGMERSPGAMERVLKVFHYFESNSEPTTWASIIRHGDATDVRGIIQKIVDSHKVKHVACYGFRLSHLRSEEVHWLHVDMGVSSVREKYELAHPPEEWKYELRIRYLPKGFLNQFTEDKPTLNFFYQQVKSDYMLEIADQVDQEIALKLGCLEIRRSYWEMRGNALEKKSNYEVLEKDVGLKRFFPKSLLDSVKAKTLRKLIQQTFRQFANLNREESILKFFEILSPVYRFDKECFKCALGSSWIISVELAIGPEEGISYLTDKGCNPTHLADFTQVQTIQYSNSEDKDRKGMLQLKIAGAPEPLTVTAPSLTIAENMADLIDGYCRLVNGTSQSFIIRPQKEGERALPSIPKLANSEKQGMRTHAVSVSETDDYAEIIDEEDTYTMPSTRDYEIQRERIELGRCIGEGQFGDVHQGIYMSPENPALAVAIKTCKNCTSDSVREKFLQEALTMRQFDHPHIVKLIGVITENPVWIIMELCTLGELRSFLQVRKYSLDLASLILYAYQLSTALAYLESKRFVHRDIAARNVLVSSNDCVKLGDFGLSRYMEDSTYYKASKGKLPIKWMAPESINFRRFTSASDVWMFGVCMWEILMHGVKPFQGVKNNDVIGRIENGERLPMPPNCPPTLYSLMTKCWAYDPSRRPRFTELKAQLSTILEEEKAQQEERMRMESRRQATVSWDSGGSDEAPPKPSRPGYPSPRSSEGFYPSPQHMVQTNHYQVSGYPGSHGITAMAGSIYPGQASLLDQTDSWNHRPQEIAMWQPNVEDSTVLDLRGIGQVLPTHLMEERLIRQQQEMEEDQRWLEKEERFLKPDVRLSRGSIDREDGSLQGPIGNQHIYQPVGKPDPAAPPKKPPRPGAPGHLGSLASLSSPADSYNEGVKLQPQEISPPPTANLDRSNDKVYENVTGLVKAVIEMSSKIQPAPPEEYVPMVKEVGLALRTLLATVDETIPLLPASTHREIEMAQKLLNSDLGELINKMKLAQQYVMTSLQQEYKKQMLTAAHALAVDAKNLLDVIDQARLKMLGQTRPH
UniProt Q14289, whole entry, looked up: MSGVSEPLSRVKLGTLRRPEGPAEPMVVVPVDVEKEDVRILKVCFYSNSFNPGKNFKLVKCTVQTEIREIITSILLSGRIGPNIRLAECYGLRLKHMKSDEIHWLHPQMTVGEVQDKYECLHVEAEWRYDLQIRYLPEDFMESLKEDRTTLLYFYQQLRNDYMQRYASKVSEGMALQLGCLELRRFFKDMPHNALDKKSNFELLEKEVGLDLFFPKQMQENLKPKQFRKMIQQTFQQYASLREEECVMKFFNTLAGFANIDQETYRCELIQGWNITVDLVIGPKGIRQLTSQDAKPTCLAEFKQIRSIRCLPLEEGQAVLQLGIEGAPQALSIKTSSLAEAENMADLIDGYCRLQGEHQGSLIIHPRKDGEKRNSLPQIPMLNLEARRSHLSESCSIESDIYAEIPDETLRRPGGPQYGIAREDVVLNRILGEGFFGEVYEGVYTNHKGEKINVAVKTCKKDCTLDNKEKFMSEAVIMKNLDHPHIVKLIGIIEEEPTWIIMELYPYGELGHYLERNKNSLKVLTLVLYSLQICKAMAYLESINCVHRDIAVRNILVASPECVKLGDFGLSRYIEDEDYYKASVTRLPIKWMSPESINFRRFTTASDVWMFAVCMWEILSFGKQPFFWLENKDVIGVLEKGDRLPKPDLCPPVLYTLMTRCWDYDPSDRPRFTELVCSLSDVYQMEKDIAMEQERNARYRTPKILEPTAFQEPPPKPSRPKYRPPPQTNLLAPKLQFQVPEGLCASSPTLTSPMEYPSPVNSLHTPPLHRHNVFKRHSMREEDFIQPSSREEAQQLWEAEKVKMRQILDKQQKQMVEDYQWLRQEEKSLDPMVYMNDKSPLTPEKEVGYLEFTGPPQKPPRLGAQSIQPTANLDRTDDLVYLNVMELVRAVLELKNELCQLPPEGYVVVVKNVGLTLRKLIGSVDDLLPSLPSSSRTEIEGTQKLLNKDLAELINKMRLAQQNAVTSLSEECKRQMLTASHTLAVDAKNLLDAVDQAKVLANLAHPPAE
UniProt P07949, whole entry, looked up: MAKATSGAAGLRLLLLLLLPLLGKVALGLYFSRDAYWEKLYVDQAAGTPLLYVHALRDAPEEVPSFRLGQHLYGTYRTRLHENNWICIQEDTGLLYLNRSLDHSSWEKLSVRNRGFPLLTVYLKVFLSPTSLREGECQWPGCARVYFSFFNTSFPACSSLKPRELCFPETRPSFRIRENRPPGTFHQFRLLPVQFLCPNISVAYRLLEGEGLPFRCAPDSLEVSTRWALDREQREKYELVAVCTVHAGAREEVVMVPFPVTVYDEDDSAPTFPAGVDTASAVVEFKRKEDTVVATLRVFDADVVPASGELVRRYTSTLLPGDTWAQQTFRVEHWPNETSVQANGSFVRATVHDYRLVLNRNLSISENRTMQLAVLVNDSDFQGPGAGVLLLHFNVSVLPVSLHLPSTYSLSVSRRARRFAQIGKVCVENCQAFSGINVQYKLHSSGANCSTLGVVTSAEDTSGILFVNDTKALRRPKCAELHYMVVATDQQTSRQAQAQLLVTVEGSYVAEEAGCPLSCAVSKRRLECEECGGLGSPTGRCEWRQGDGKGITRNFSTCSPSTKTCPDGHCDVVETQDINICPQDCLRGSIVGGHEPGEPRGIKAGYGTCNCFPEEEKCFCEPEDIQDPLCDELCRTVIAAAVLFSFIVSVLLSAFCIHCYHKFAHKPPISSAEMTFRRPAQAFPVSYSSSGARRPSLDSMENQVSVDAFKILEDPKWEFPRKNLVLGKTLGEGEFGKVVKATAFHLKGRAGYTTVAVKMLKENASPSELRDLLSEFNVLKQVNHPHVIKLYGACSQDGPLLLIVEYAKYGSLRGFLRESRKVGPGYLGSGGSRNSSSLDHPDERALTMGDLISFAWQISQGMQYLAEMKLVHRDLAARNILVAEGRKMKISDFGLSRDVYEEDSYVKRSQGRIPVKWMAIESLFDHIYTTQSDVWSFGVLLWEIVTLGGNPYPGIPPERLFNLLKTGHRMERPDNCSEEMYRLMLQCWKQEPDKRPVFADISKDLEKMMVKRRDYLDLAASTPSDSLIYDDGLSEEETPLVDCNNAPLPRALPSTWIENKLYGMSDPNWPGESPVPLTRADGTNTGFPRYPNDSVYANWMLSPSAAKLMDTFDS
UniProt P07949, whole entry M918T, looked up: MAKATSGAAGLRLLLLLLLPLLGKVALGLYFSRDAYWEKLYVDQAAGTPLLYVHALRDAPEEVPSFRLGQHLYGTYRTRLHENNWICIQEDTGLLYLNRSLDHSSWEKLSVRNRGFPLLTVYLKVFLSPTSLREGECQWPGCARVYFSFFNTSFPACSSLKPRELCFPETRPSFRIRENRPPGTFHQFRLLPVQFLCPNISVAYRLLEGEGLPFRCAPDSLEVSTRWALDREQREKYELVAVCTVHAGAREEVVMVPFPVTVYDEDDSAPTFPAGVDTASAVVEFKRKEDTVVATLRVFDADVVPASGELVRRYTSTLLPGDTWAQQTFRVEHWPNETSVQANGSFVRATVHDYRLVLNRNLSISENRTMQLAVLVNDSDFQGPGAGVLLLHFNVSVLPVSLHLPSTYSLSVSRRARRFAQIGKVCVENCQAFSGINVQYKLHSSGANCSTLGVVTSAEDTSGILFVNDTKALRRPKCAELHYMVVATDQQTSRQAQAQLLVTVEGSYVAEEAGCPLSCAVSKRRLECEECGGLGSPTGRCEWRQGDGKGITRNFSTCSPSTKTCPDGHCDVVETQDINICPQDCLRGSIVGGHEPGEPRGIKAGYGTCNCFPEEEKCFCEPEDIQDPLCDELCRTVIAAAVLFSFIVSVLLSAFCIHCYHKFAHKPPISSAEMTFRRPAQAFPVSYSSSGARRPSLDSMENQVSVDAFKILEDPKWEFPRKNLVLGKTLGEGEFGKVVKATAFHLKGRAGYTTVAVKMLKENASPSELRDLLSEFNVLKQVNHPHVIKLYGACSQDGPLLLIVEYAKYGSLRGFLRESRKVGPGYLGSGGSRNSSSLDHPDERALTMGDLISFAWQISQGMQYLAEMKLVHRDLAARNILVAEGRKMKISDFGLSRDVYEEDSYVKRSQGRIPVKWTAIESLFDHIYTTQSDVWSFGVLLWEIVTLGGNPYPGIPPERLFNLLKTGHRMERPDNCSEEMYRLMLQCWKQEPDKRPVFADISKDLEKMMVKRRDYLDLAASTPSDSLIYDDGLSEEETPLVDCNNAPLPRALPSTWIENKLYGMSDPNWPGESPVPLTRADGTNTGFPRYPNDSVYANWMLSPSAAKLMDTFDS
UniProt Q9BRS2: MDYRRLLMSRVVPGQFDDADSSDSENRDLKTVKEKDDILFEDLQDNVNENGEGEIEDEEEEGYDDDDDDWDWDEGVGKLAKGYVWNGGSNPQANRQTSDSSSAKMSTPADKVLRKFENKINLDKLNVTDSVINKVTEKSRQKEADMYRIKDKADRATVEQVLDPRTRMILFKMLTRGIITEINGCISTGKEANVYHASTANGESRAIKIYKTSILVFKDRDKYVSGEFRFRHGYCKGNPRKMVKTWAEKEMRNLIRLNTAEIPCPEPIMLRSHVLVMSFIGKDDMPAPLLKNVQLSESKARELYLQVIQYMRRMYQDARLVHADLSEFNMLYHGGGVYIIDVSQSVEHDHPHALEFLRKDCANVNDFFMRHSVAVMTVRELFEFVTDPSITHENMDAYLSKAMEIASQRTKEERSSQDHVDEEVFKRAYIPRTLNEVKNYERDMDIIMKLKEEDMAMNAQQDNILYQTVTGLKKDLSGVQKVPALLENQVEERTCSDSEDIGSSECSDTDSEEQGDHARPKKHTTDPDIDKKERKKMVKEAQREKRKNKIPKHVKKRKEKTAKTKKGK
UniProt Q13546: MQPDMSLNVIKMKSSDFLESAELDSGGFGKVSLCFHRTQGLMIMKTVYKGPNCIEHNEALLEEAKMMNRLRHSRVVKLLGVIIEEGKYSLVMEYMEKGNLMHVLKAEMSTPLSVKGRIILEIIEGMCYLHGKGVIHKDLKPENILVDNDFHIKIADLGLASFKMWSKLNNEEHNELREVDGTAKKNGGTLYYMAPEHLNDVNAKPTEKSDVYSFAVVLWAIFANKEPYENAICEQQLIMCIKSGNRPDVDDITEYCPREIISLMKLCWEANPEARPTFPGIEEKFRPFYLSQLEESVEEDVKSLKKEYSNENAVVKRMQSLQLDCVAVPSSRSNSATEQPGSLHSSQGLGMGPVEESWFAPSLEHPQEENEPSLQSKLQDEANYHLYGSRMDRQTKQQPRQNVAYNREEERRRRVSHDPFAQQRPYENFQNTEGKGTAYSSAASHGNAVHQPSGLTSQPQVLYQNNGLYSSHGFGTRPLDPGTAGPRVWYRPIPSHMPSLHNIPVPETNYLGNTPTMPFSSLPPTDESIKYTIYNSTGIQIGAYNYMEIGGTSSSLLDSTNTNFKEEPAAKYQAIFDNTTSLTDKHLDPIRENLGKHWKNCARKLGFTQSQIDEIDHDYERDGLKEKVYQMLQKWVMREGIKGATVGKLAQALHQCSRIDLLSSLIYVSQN

What was measured:
Assay in all cases: number of time points (of 5) at which kinase-Nluc abundance scored as decreased, DMSO-normalised (count); higher = more persistent destabilization
Details in all cases: K562; 2-18 h
PRKCA = PRKCA (UniProt P17252)
PTK2 = PTK2 (UniProt Q05397)
PTK2B = PTK2B (UniProt Q14289)
RAF1 = RAF1 (UniProt P04049)
[1] = target: RAF1_S257L (clone: RAF1_mut) (UniProt P04049)
RET = RET (UniProt P07949)
[2] = target: RET_M918T (clone: RET_mut) (UniProt P07949)
RIOK1 = RIOK1 (UniProt Q9BRS2)
RIPK1 = RIPK1 (UniProt Q13546)
RIPK2 = RIPK2 (UniProt O43353)

Row | Structure (SMILES) | number of time points (PRKCA) | number of time points (PTK2) | number of time points (PTK2B) | number of time points (RAF1) | number of time points [1] | number of time points (RET) | number of time points [2] | number of time points (RIOK1) | number of time points (RIPK1) | number of time points (RIPK2)
1 | O=C1Nc2ccc(C(=O)c3ccco3)cc2C1=Cc1cc(Cl)c(O)c(Cl)c1 (2.5 µM) | 5 | 0 | 0 | 0 | 0 | 0 | 0 | 0 | 0 | 0
2 | CC(=O)NC1CC(n2cnc(NC(=O)Cc3ccc4ccccc4c3)c2)C1 (stereo not given) (10 µM) | 0 | 0 | 0 | 0 | 0 | 0 | 0 | 0 | 0 | 0
3 | C=C1C(=O)O[C@H]2C[C@H](C)C(/C=C/C(C)=O)=CC[C@H]12 [Xanthatin] (2.5 µM) | 0 | 0 | 0 | 0 | 0 | 0 | 0 | 0 | 0 | 0
4 | Cc1cc(Nc2ncnc3ccc(NC4=NC(C)(C)CO4)cc23)ccc1Oc1ccn2ncnc2c1 [Tucatinib (hemiethanolate)] (2.5 µM) | 0 | 0 | 0 | 0 | 0 | 0 | 0 | 0 | 0 | 0
5 | C=CC(=O)Nc1cccc(Nc2nc(Nc3ccc(N4CCN(C(C)=O)CC4)cc3OC)ncc2C(F)(F)F)c1 [Rociletinib hydrobromide] (10 µM) | 0 | 0 | 0 | 0 | 3 | 0 | 0 | 0 | 0 | 0
6 | CNC(=O)c1ccc(C)c(-n2c(C)cc(OCc3ccc(F)cc3F)c(Br)c2=O)c1 (10 µM) | 0 | 0 | 0 | 0 | 0 | 0 | 0 | 0 | 0 | 0
7 | CC(C)(C)c1nc(-c2cccc(NS(=O)(=O)c3c(F)cccc3F)c2F)c(-c2ccnc(N)n2)s1 [Dabrafenib] (2.5 µM) | 0 | 0 | 0 | 0 | 1 | 0 | 0 | 0 | 0 | 0
8 | Oc1cc(O)c2cc(O)c(-c3cc(O)c(O)c(O)c3)[o+]c2c1 [Delphinidin (chloride)] (10 µM) | 0 | 2 | 0 | 0 | 0 | 0 | 0 | 1 | 1 | 4
9 | Cc1ccc(C(=O)Nc2ccc(Oc3cc4cnn(C)c4cc3-c3cn[nH]c3)c(F)c2)c(=O)n1-c1ccc(F)cc1 [Merestinib] (2.5 µM) | 0 | 0 | 0 | 0 | 0 | 0 | 0 | 0 | 0 | 0
10 | COc1cc2ncc(-c3ccccc3)nc2cc1OC [Tyrphostin AG1296] (10 µM) | 0 | 0 | 0 | 0 | 0 | 0 | 0 | 0 | 0 | 0
11 | Nc1nc(F)nc2c1ncn2[C@@H]1O[C@H](CO)[C@@H](O)[C@@H]1O [Fludarabine] (10 µM) | 0 | 0 | 0 | 0 | 0 | 0 | 0 | 0 | 0 | 0
12 | CC1(C)C(O[C@@H]2OC[C@@H](O)[C@H](O)[C@H]2O)CC[C@]23CC24CC[C@]2(C)[C@@H]([C@@]5(C)CC[C@@H](C(C)(C)O)O5)[C@H](O)C[C@@]2(C)C4C[C@@H](O[C@@H]2O[C@H](CO)[C@@H](O)[C@H](O)[C@H]2O)C13 (stereo not given in full) [Astragaloside IV] (10 µM) | 0 | 0 | 0 | 0 | 0 | 0 | 0 | 0 | 0 | 0
13 | CNC(=O)c1cc(COc2nnc(Nc3ccc(Cl)cc3)c3ccoc23)ccn1 [Telatinib] (10 µM) | 0 | 5 | 0 | 0 | 0 | 0 | 0 | 0 | 0 | 0
14 | CN(C)C(=O)Cn1cc(-c2ccc(-c3cncc4ccccc34)cc2)cn1 (10 µM) | 0 | 0 | 0 | 0 | 0 | 0 | 0 | 0 | 0 | 0
15 | Oc1cc2c(cc1O)C(Cc1cccc3ccccc13)NCC2 (stereo not given) (10 µM) | 0 | 0 | 0 | 0 | 0 | 0 | 0 | 0 | 0 | 0
16 | COc1cc(Nc2ncc(F)c(Nc3ccc4c(n3)N(COP(=O)(O)O)C(=O)C(C)(C)O4)n2)cc(OC)c1OC [Fostamatinib (disodium hexahydrate)] (10 µM) | 0 | 0 | 0 | 0 | 0 | 0 | 0 | 0 | 0 | 0
17 | CNC(=O)c1c(F)cccc1Nc1nc(Nc2cc3c(cc2OC)CCN3C(=O)CN(C)C)nc2[nH]ccc12 (10 µM) | 0 | 1 | 0 | 0 | 0 | 0 | 0 | 0 | 0 | 0
18 | C=CC(=O)Nc1cc(C)ccc1Nc1nc(Nc2cc(OC)ncc2C)ncc1C(F)(F)F (10 µM) | 0 | 0 | 0 | 0 | 0 | 0 | 0 | 0 | 0 | 0

Random excerpt: 2 records from the list, in no set order.
Row | Structure (SMILES) | number of time points (PRKCA) | number of time points (PTK2) | number of time points (PTK2B) | number of time points (RAF1) | number of time points [1] | number of time points (RET) | number of time points [2] | number of time points (RIOK1) | number of time points (RIPK1) | number of time points (RIPK2)
6 | CNC(=O)c1ccc(C)c(-n2c(C)cc(OCc3ccc(F)cc3F)c(Br)c2=O)c1 (10 µM) | 0 | 0 | 0 | 0 | 0 | 0 | 0 | 0 | 0 | 0
7 | CC(C)(C)c1nc(-c2cccc(NS(=O)(=O)c3c(F)cccc3F)c2F)c(-c2ccnc(N)n2)s1 [Dabrafenib] (2.5 µM) | 0 | 0 | 0 | 0 | 1 | 0 | 0 | 0 | 0 | 0

Remaining list, next part:

Row | Structure (SMILES) | number of time points (PRKCA) | number of time points (PTK2) | number of time points (PTK2B) | number of time points (RAF1) | number of time points [1] | number of time points (RET) | number of time points [2] | number of time points (RIOK1) | number of time points (RIPK1) | number of time points (RIPK2)
19 | Cc1cccc(-c2[nH]ncc2-c2ccc(F)c(-c3cnn(CCO)c3)c2)n1 (10 µM) | 0 | 0 | 0 | 0 | 0 | 0 | 0 | 0 | 0 | 0
20 | Cn1nccc1Nc1nccc(-c2ccn([C@H](CO)c3ccc(Cl)c(F)c3)c(=O)c2)n1 [Ravoxertinib] (10 µM) | 0 | 0 | 0 | 0 | 0 | 0 | 0 | 0 | 0 | 0
21 | COc1cc2c(N3CCN(C(=O)Nc4ccc(OC(C)C)cc4)CC3)ncnc2cc1OCCCN1CCCCC1 [Tandutinib] (10 µM) | 0 | 0 | 0 | 0 | 0 | 0 | 0 | 0 | 0 | 0
22 | OCCn1cc(-c2ccc3c(c2)CC/C3=N\O)c(-c2ccncc2)n1 (10 µM) | 0 | 0 | 0 | 0 | 0 | 0 | 0 | 0 | 0 | 0
23 | O=C(CSC1=NCCN1)NC1CCCCCC1 [ICCB-19 (hydrochloride)] (2.5 µM) | 0 | 0 | 0 | 2 | 0 | 0 | 0 | 0 | 0 | 0
24 | C=CC(=O)Nc1cccc(Nc2nc(Nc3ccc(NC4CN(CCF)C4)cc3OC)ncc2C(F)(F)F)c1 (2.5 µM) | 0 | 0 | 0 | 0 | 0 | 0 | 0 | 0 | 0 | 0
25 | Cc1c(NC(=O)c2cccn(-c3ccc(F)cc3)c2=O)ccc(Oc2ccnc(NC(=O)C3CC3)c2)c1C (2 µM) | 0 | 0 | 0 | 0 | 0 | 0 | 0 | 0 | 0 | 0
26 | N#Cc1c(C2CCNCC2)cc(-c2c(O)cccc2OCC2CC2)nc1N [ACHP (Hydrochloride)] (10 µM) | 0 | 0 | 0 | 0 | 0 | 0 | 0 | 0 | 0 | 0
27 | COc1ccc(OC)c(C2C(C#N)=C(N)Oc3n[nH]c(-c4ccc5ccccc5c4)c32)c1 (stereo not given) (10 µM) | 0 | 0 | 0 | 0 | 0 | 0 | 0 | 0 | 0 | 0
28 | COc1ncc(Cl)cc1S(=O)(=O)Nc1ccc(F)c(C#Cc2cnc(N)nc2)c1F (2.5 µM) | 0 | 2 | 0 | 0 | 0 | 0 | 0 | 0 | 0 | 0
29 | O=C(NCCN1CCOCC1)c1cc2c(Oc3ccc(NC(=O)C4(C(=O)Nc5ccc(F)cc5)CC4)cc3)ccnc2[nH]1 [Tyrosine kinase inhibitor] (10 µM) | 0 | 0 | 0 | 0 | 0 | 0 | 0 | 0 | 0 | 0
30 | C=CC(=O)Nc1ccc(CN2C(=O)N(c3cc(OC)cc(OC)c3)Cc3cnc(Nc4ccc(N5CCN(C)CC5)cc4)nc32)cc1 (2.5 µM) | 0 | 0 | 0 | 0 | 0 | 0 | 0 | 0 | 0 | 0
31 | Cn1ncc(Cl)c1-c1cc(C(=O)N[C@H](CN)Cc2ccc(F)c(F)c2)oc1Cl [Uprosertib] (10 µM) | 0 | 0 | 0 | 0 | 0 | 0 | 0 | 0 | 0 | 0
32 | O=Nc1c(-c2c(O)[nH]c3ccc(I)cc23)[nH]c2ccccc12 [5-Iodo-indirubin-3'-monoxime] (10 µM) | 0 | 0 | 0 | 0 | 0 | 0 | 0 | 0 | 0 | 0
33 | COc1cc2c(N3CCN(C(=O)Nc4ccc(OC(C)C)cc4)CC3)ncnc2cc1OCCCN1CCCCC1 [Tandutinib (hydrochloride)] (10 µM) | 0 | 0 | 0 | 0 | 0 | 0 | 0 | 0 | 0 | 0
34 | CC#CC(=O)N1CC[C@@H](n2c(=O)n(-c3ccc(Oc4ccccc4)cc3)c3c(N)ncnc32)C1 [Tirabrutinib] (10 µM) | 0 | 0 | 0 | 0 | 0 | 0 | 0 | 0 | 0 | 0
35 | C[C@@H]1COCCN1c1cc(C2([S@@](C)(=N)=O)CC2)nc(-c2ccnc3[nH]ccc23)n1 [(S)-Ceralasertib] (10 µM) | 0 | 0 | 0 | 0 | 0 | 0 | 0 | 0 | 0 | 0
36 | NS(=O)(=O)c1ccc(-n2nc(C(F)(F)F)cc2-c2ccc(Cl)cc2)cc1 (10 µM) | 0 | 0 | 0 | 0 | 0 | 0 | 0 | 0 | 0 | 0
